# This is one part of the list. This is a noisy data set.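 Tm was set to 64 °C where no melting was found, and many curves are irregular.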
# By UniProt entry, the sequences of proteins in these tests, tags left out. Where a name states a change or a piece, a line headed by the entry shows the natural chain unless it says otherwise.
# UniProt Q9Y608: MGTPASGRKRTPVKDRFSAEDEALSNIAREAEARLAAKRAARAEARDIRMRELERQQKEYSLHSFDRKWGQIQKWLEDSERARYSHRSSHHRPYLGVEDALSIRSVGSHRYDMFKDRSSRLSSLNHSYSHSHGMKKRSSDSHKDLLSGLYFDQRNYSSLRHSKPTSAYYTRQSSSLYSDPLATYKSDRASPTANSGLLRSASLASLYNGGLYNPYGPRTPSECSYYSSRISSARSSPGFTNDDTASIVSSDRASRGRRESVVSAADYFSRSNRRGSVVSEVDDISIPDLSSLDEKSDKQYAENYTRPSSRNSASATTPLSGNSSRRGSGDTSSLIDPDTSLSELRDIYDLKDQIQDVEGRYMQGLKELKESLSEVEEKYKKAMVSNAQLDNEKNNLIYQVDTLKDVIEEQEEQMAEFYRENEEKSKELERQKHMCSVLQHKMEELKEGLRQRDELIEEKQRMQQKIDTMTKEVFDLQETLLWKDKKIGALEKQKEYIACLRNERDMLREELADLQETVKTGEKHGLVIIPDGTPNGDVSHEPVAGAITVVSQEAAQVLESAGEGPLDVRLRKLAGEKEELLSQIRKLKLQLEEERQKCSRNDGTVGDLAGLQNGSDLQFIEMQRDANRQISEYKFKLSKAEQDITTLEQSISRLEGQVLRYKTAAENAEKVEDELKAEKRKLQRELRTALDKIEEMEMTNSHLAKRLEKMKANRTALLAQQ
# UniProt Q9Y530: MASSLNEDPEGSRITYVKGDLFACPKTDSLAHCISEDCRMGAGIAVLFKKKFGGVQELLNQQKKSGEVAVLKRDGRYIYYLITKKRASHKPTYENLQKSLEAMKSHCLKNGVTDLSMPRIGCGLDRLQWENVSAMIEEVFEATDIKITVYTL
# UniProt Q9Y2V2: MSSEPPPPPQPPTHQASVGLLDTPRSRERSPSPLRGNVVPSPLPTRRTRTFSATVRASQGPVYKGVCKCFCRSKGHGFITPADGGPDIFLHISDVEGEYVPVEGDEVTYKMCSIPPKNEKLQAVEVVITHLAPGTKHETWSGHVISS
# UniProt Q9Y6Q9, whole entry, looked up: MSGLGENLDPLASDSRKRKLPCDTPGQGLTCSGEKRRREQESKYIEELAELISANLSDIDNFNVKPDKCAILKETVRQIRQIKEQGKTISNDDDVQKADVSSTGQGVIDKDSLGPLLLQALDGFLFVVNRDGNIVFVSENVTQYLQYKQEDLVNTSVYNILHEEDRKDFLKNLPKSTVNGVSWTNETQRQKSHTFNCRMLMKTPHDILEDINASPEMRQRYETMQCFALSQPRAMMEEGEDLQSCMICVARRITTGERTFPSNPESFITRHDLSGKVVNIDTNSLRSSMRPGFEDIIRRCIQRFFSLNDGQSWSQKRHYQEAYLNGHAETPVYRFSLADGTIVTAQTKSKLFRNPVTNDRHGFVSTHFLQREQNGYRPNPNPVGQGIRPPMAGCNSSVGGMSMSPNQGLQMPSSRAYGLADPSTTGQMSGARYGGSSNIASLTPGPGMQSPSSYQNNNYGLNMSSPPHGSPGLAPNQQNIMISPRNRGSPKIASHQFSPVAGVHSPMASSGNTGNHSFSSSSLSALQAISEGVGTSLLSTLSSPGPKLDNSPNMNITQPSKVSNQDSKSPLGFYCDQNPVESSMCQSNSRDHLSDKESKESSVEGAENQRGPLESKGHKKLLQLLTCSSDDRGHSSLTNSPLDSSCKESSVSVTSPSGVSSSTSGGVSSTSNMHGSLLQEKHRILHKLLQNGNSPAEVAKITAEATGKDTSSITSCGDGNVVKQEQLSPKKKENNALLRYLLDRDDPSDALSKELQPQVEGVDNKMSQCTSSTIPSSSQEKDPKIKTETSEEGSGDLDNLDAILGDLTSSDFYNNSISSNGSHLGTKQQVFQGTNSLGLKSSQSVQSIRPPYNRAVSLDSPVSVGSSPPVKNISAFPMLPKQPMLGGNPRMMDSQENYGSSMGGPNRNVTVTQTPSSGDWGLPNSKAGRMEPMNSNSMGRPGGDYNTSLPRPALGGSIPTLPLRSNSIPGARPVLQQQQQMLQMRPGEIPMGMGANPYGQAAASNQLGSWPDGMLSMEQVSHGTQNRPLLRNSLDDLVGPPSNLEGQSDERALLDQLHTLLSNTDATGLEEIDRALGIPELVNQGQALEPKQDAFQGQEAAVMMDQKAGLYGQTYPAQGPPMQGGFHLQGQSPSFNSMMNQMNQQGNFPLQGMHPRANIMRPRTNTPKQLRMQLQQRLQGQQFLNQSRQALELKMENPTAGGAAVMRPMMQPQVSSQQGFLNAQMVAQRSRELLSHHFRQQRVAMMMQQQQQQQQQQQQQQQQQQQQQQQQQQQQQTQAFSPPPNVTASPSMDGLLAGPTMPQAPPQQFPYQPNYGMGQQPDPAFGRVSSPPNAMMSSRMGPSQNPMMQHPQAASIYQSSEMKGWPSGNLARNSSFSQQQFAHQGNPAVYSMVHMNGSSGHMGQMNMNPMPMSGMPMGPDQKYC
# UniProt Q9Y2P8: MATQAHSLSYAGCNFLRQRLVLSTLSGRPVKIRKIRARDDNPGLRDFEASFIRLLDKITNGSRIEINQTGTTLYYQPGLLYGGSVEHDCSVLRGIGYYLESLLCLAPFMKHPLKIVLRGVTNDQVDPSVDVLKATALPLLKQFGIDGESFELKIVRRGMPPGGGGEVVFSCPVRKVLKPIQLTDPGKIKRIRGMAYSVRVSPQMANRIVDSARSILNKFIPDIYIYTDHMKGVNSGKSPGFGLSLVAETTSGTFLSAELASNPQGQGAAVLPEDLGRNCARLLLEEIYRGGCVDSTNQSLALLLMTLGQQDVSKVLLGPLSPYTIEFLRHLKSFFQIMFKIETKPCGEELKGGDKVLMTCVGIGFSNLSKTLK
# UniProt Q9Y484: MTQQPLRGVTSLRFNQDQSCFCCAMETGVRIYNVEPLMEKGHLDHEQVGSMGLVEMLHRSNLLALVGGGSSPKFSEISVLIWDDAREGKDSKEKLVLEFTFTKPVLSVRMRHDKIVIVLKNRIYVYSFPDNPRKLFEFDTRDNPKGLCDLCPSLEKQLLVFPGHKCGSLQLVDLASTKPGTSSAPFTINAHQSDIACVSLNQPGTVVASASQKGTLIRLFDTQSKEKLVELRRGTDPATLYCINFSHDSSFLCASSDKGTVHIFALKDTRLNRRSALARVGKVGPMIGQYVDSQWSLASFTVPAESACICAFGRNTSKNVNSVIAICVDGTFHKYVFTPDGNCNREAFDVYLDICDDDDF
# UniProt Q9Y5Z7: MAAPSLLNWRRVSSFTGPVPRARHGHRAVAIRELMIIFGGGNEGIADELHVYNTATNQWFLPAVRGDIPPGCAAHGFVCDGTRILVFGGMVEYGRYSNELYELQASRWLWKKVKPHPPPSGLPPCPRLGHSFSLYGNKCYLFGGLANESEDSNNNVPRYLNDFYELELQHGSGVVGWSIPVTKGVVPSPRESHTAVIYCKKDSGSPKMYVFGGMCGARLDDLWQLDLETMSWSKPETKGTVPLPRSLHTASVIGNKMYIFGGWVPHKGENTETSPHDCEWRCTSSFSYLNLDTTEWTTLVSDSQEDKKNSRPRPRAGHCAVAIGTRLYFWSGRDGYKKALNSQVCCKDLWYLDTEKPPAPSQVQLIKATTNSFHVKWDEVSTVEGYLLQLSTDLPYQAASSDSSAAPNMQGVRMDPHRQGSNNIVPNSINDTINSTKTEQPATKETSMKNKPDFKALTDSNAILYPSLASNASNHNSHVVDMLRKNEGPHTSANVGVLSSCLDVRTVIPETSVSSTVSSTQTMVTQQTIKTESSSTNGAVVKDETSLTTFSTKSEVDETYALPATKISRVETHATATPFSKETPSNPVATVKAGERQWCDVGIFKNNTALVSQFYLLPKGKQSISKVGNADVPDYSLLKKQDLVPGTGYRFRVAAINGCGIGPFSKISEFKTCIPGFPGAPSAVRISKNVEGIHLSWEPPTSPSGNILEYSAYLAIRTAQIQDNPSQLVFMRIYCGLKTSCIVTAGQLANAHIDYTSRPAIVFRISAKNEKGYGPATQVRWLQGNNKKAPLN
# UniProt Q9Y2U8: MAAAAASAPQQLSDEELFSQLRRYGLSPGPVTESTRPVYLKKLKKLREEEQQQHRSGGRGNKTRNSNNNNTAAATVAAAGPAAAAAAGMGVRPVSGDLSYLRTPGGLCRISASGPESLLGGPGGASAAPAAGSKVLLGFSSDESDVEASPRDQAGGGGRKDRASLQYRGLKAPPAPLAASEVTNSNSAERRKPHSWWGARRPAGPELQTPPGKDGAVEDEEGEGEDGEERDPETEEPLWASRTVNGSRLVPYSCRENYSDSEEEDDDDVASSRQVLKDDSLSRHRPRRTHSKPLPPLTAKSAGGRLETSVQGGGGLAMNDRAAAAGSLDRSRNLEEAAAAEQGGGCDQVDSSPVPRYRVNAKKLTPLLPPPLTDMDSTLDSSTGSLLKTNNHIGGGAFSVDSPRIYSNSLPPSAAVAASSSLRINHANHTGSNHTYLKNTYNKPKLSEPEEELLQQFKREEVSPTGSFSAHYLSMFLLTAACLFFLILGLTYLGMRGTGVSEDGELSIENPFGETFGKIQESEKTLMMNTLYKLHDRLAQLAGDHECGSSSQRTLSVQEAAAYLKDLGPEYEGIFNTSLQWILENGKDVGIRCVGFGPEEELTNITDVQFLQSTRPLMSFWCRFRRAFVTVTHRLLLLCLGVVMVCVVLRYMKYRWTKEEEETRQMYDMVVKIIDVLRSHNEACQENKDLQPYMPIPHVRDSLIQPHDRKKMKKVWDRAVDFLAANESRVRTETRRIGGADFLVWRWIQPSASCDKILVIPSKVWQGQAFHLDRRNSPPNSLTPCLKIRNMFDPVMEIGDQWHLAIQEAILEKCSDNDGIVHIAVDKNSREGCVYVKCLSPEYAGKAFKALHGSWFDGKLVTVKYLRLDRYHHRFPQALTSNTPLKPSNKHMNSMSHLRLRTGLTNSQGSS
# UniProt Q9Y5N5: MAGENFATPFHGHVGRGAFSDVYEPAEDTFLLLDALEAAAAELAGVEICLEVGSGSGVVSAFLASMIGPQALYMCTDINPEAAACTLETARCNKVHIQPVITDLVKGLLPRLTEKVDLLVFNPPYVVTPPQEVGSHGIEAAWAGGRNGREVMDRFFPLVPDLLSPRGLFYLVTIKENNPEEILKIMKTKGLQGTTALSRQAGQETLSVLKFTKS
# UniProt Q9Y3L5: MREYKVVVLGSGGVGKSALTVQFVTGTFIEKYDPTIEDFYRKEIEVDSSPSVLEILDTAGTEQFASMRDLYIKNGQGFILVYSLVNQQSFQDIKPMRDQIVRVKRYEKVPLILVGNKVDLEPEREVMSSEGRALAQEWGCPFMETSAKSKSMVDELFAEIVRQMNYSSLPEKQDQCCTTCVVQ
# UniProt Q9Y5X1: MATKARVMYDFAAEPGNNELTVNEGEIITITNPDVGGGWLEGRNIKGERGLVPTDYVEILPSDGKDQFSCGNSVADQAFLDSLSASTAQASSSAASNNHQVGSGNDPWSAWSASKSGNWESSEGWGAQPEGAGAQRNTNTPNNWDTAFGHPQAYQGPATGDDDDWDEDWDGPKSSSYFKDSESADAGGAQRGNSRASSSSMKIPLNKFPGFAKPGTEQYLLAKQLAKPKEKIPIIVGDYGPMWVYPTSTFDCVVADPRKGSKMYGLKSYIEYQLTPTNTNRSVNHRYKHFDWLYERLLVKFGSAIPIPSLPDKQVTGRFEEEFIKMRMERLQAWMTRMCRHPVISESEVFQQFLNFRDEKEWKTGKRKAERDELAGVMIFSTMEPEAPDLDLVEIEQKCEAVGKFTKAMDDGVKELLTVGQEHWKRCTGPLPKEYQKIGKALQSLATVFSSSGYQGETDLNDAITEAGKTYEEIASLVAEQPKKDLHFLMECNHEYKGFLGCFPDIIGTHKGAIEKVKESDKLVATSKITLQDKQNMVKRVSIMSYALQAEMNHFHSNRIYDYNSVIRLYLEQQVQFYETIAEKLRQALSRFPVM
# UniProt Q9Y6X4: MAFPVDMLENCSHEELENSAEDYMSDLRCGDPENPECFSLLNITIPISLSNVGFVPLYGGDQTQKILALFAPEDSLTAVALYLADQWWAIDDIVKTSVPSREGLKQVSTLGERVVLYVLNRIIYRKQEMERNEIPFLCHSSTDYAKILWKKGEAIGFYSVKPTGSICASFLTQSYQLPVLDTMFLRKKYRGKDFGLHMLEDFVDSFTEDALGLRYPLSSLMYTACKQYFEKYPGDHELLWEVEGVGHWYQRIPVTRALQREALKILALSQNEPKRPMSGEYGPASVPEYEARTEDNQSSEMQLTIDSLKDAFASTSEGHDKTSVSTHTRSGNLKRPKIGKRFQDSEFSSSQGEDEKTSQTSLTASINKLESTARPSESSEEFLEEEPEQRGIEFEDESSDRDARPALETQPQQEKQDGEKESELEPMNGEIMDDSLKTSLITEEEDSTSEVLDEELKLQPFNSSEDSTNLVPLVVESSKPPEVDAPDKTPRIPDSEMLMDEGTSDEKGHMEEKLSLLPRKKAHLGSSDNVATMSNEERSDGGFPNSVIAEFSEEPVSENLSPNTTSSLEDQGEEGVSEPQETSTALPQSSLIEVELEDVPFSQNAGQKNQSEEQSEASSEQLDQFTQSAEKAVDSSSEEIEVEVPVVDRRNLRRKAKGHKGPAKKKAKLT
# Compound: CCc1cnccc1C(=O)Nc1cc2c(cc1F)NC(=O)CC2
# Assay: melting temperature shift (DMSO Tm minus MBE1-treated Tm) in cellular thermal proteome profiling; higher = less thermal stabilization by MBE1 (negative = stabilized by MBE1)
# Conditions: A375; MBE1 concentration: 100 nM
row,Target,melting temperature shift [°C]
1,LRRFIP2 (UniProt Q9Y608),-4.13
2,OARD1 (UniProt Q9Y530),-0.381
3,UniProt Q9Y2R4,-0.218
4,FLVCR1 (UniProt Q9Y5Y0),-1.41
5,MTCL1 (UniProt Q9Y4B5),-5.61
6,DYNC1LI1 (UniProt Q9Y6G9),-0.116
7,CARHSP1 (UniProt Q9Y2V2),-1.96
8,NCOA3 (UniProt Q9Y6Q9),-0.423
9,YTHDF2 (UniProt Q9Y5A9),-0.147
10,ARFGEF2 (UniProt Q9Y6D5),0.495
11,TBL2 (UniProt Q9Y4P3),-0.482
12,ATP6V0A2 (UniProt Q9Y487),-1.33
13,UniProt Q9Y4F9,-0.923
14,EXOSC1 (UniProt Q9Y3B2),-0.837
15,UniProt Q9Y6A1,-0.878
16,SLC4A7 (UniProt Q9Y6M7),-0.865
17,RCL1 (UniProt Q9Y2P8),1.32
18,NME7 (UniProt Q9Y5B8),-1.28
19,MAP3K4 (UniProt Q9Y6R4),0.055
20,TPRKB (UniProt Q9Y3C4),-1.14

row,Target,melting temperature shift [°C]
1,WDR45 (UniProt Q9Y484),0.57
2,SEC23IP (UniProt Q9Y6Y8),0.276
3,CTDP1 (UniProt Q9Y5B0),-0.243
4,UniProt Q9Y625,-2.46
5,UniProt Q9Y5Z7,1.47
6,LEMD3 (UniProt Q9Y2U8),-0.861
7,ACOT9 (UniProt Q9Y305),-0.241
8,COG6 (UniProt Q9Y2V7),-0.259
9,NOSIP (UniProt Q9Y314),-0.448
10,UniProt Q9Y6Q3,0.531
11,UniProt Q9Y5N5,-0.288
12,FKBP7 (UniProt Q9Y680),0.803
13,RAP2C (UniProt Q9Y3L5),-4
14,PTRH2 (UniProt Q9Y3E5),-0.542
15,UniProt Q9Y666,0.275
16,SNX9 (UniProt Q9Y5X1),0.586
17,PPME1 (UniProt Q9Y570),-0.833
18,UniProt Q9Y6K8,-1.23
19,RAD54L2 (UniProt Q9Y4B4),-2.63
20,UniProt Q9Y6X4,0.0201

# Same assay, conditions: A375; MBE1 concentration: 1 uM
row,Target,melting temperature shift [°C]
1,LRRFIP2 (UniProt Q9Y608),-3.44
2,OARD1 (UniProt Q9Y530),-0.837
3,UniProt Q9Y2R4,0.00641
4,FLVCR1 (UniProt Q9Y5Y0),-0.272
5,MTCL1 (UniProt Q9Y4B5),-5.32
6,DYNC1LI1 (UniProt Q9Y6G9),0.843
7,CARHSP1 (UniProt Q9Y2V2),1.92
8,NCOA3 (UniProt Q9Y6Q9),-1.07
9,YTHDF2 (UniProt Q9Y5A9),0.336
10,ARFGEF2 (UniProt Q9Y6D5),-0.672
11,TBL2 (UniProt Q9Y4P3),-0.464
12,ATP6V0A2 (UniProt Q9Y487),-0.752
13,UniProt Q9Y4F9,-0.975
14,EXOSC1 (UniProt Q9Y3B2),-0.216
15,UniProt Q9Y6A1,0.122
16,SLC4A7 (UniProt Q9Y6M7),0.852
17,RCL1 (UniProt Q9Y2P8),0.336
18,NME7 (UniProt Q9Y5B8),0
19,MAP3K4 (UniProt Q9Y6R4),-0.495
20,TPRKB (UniProt Q9Y3C4),1.29

row,Target,melting temperature shift [°C]
1,WDR45 (UniProt Q9Y484),0.923
2,SEC23IP (UniProt Q9Y6Y8),0.0244
3,CTDP1 (UniProt Q9Y5B0),-0.16
4,UniProt Q9Y625,2.22
5,UniProt Q9Y5Z7,2.01
6,LEMD3 (UniProt Q9Y2U8),-0.247
7,ACOT9 (UniProt Q9Y305),-0.0335
8,COG6 (UniProt Q9Y2V7),-0.456
9,NOSIP (UniProt Q9Y314),-0.359
10,UniProt Q9Y6Q3,0
11,UniProt Q9Y5N5,0.834
12,FKBP7 (UniProt Q9Y680),-2.38
13,RAP2C (UniProt Q9Y3L5),-5.42
14,PTRH2 (UniProt Q9Y3E5),0.562
15,UniProt Q9Y666,0.721
16,SNX9 (UniProt Q9Y5X1),-0.177
17,PPME1 (UniProt Q9Y570),-0.00611
18,UniProt Q9Y6K8,0.212
19,RAD54L2 (UniProt Q9Y4B4),-1.86
20,UniProt Q9Y6X4,1.43
